Test results: PMC8622166
These are yes or no findings as the source states them, for the method shown.

Protein sequences, listed by entry. Tags and fused reporters are not part of them.
UniProt Q9H4E5: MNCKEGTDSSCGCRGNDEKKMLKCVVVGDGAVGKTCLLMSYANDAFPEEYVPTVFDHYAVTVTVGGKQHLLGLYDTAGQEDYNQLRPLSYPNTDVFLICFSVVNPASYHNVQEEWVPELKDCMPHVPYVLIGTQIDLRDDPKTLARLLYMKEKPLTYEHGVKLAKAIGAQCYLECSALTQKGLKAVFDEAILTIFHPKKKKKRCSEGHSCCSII

B1: GDI2 (protein, UniProt P52566 1-201)
chain: MTEKAPEPHVEEDDDDELDSKLNYKPPPQKSLKELQEMDKDDESLIKYKKTLLGDGPVVTDPKAPNVVVTRLTLVCESAPGPITMDLTGDLEALKKETIVLKEGSEYRVKIHFKVNRDIVSGLKYVQHTYRTGVKVDKATFMVGSYGPRPEEYEFLTPVEEAPKGMLARGTYHNKSFFTDDDKQDHLSWEWNLSIKKEWTE
B2: GDI3ΔN20 (domain or fragment, UniProt Q99819 21-225)
chain: LCARVLLADKEGGPPAVDEVLDEAVPEYRAPGRKSLLEIRQLDPDDRSLAKYKRVLLGPLPPAVDPSLPNVQVTRLTLLSEQAPGPVVMDLTGDLAVLKDQVFVLKEGVDYRVKISFKVHREIVSGLKCLHHTYRRGLRVDKTVYMVGSYGPSAQEYEFVTPVEEAPRGALVRGPYLVVSLFTDDDRTHHLSWEWGLCICQDWKD

Target: TCL (UniProt Q9H4E5)
Test: stopped-flow fluorimetry; association (kobs) at one concentration: 2 µM GDI mixed with 0.2 µM mdGDP-bound RHO GTPase; 25 °C, 30 mM Tris/HCl pH 7.5, 10 mM K2HPO4/KH2PO4 pH 7.5, 5 mM MgCl2, 3 mM DTT; both purified

| Binder | binding |
| --- | --- |
| B1 | no binding (tested: 2 µM GDI, 0.2 µM mdGDP-bound GTPase) |
| B2 | no binding (tested: 2 µM GDI, 0.2 µM mdGDP-bound GTPase) |
